Paper PMC2747011, “Soybean GmPHD-Type Transcription Regulators Improve Stress Tolerance in Transgenic Arabidopsis Plants”

Legend:
Assay in all cases: two-hybrid; yeast strain YRG2 (Stratagene); pAD-GmPHD6 with pBD constructs; growth on SD-His/Trp/Leu with 10 mM 3-AT and X-gal staining (LacZ)
[1] = molecular target: GmPHD1 (soybean (Glycine max)) (UniProt Q06A73)
[2] = molecular target: GmPHD4 (soybean (Glycine max)) (UniProt Q06A76)
[3] = molecular target: GmPHD5 (soybean (Glycine max)) (UniProt Q06A75)

Measured: binding

GmPHD6 (from UniProt Q06A74)
binds: all assays above

These are yes or no findings as the source states them, for the method shown. A result given as binding can be weak or reduced; the word gives no strength.
